This passage reports AML/MPC results from patent US20230287070A1, “NOVEL TUMOR-SPECIFIC ANTIGENS FOR ACUTE MYELOID LEUKEMIA (AML) AND USES THEREOF” (UNIVERSITE DE MONTREAL, priority 2020, published 2023).

This data set deals with AML specimens vs MPCs. Briefly: Fold change of RNA expression between AML specimens and MPCs. Details: species or system human.
Sequence VVFPFPVNK (listed as Homo sapiens) yielded an AML/MPC of 1449.166.

YSHHSGLEY (listed as Homo sapiens) displayed an AML/MPC of 91.17.

YYLDWIHHY (listed as Homo sapiens) gave an AML/MPC of 21.44.
